## Results from one PubChem assay

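Uptake of anthrax lethal toxin into cultured cells, read by FRET (460/530 nm ratio) and reported from the 460 nm channel; the cell line is not named here.
Each compound was tested as a concentration series from about 0.0005 to 40 µM.
The number is the fitted AC50 of the 460 nm signal alone; lower values mean a more potent effect. A falling signal goes with compounds filed as inhibitors or cytotoxic, a rising one with activators or fluorescent compounds (inferred from the filed classes).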

Values are in µM.
Common to all entries: measured here: 460 nm channel.
Part of the compounds only, not a random draw; the main read-out is not listed here.
A potency from a partial, single-point or poor curve is only a rough figure.
The first word of each remark tells which way the curve ran; it can be opposite to the aim of the assay.

compound	AC50 (µM)	remark
Nc1nonc1-c1nc2ccccc2n1Cc1ccc(F)cc1	6.31	falling, full curve
COc1c(C)cc(Br)cc1C(=O)Nc1cccc(-c2nc3ncccc3o2)c1	7.943	falling, partial curve
Cc1nn2c(-c3ccccc3)c(-c3ccccc3)nc2[nH]c1=O	1.585	falling, partial curve
O=c1[nH]c(=O)n(Cc2ccc(F)cc2)c(O)c1C=NCCN1CCCCC1	0.1995	falling, full curve
COc1ccc(C(=O)NCCn2cc(SCC(=O)N3CCOCC3)c3ccccc32)cc1	6.31	rising, partial curve
COCCn1c(=O)c(-c2ccc(F)cc2)nc2cnc(Oc3cccc(Cl)c3)nc21	19.95	rising, single point
O=C(Oc1nsnc1N1CCOCC1)N(c1ccccc1)c1ccccc1	10	rising, single point
Cc1ccccc1-c1ccc2ncnc(-n3ccnc3)c2c1	0.03981	falling, full curve, poor fit
COc1ccc2nc(N3CCCC3)c(C#N)cc2c1	3.162	rising, partial curve
CCCC12CN3CC(C)(CN(C1)C31C(=O)Nc3ccc(C)cc31)C2=O (stereo not drawn)	0.003981	falling, full curve, poor fit
CCOc1ccc(Cn2nnc(C(=O)Nc3cc(C)cc(C)c3)c2N)cc1	1	falling, partial curve, poor fit
COC(=O)c1c(NC(=O)C2CC2)sc2c1CCN(C(C)=O)C2	5.012	rising, single point
COCCCNC(=O)CSc1nc2ccc(N3CCOCC3)cc2c(=O)n1CCc1ccccc1	0.003981	rising, full curve, poor fit
CC1=CC(C)=Nc2ccc(C)cc2N1	0.1	rising, full curve, poor fit
N#Cc1sc2nc(-c3ccccc3)cc(-c3ccco3)c2c1N	2.512	rising, full curve
Oc1ccc2ccccc2c1C=NCc1cn2ccsc2n1	6.31	falling, partial curve
O=C(CCn1nnc2ccccc21)Nc1nnc(-c2ccccc2F)s1	12.59	falling, partial curve, poor fit
C[C@H](N)Cc1c[nH]c2ccc(O)cc12	31.62	falling, single point
O=[N+]([O-])c1ccc2c(N=Nc3ccc4ccccc4c3O)c(O)cc(S(=O)(=O)O)c2c1	0.5012	falling, single point
CC(C)=CCC/C(C)=C/CO/N=C1/C[C@@H](O)[C@@H](O)[C@@H]2[C@@H]3C(=O)N(c4cccc(Oc5ccccc5)c4)C(=O)[C@H]3CC[C@@H]12	0.1585	rising, single point
CCOC(=O)Cn1nnc(-c2ccc(S(C)(=O)=O)cc2)n1	1	rising, full curve
Cc1noc(C)c1C(=O)OCC(=O)c1cc(C)n(Cc2ccccc2Cl)c1C	25.12	rising, single point
COc1ccc(Oc2ncc3nc(-c4cn(C)c5ccccc45)c(=O)n(C)c3n2)cc1	5.012	rising, partial curve
NS(=O)(=O)c1cc2c(cc1Cl)N[C@@H]([C@@H]1C[C@@H]3C=C[C@H]1C3)NS2(=O)=O	12.59	rising, single point
CN1CC[C@@]23c4ccccc4N[C@H]1[C@]21CCN(C)[C@@H]3Nc2ccccc21	0.1585	falling, full curve, poor fit
CCOc1ccccc1NC(=O)CCSc1nc2n[nH]c(C)c2c(=N)n1-c1ccccc1Cl	31.62	falling, single point
CCC(Sc1nc2n[nH]c(C)c2c(=N)n1-c1cccc(Cl)c1)C(=O)NCCOC (stereo not drawn)	31.62	falling, single point
COc1cccc2oc(-c3ccc(O)cc3)cc(=O)c12	15.85	falling, partial curve
COCC(C)NC(=O)CCS(=O)(=O)c1nc(-c2ccc(OC)cc2)cc(C(F)(F)F)n1 (stereo not drawn)	1.585	falling, full curve
CCc1cccc2nc3c(c([Si](CC)(CC)CC)c12)Cn1c-3cccc1=O	3.981	rising, full curve
O=C(c1cccc(F)c1)N1CCC2(CCCN(Cc3cc(C(F)(F)F)cc(C(F)(F)F)c3)C2)CC1	1	falling, full curve
Cc1cccc(CNc2ccnc(-c3cccc(C#N)c3)n2)c1	6.31	falling, full curve
O=C1OCCC1Sc1nc2ccccc2[nH]1 (stereo not drawn)	0.007943	falling, full curve, poor fit
C=CCN1C(=O)C(O)(CC(=O)c2ccc(-n3cccc3)cc2)c2ccccc21 (stereo not drawn)	12.59	falling, single point
Cc1ccc(CN2CCN(CC(=O)N3CCc4ccccc4C3)C2=O)cc1	31.62	falling, single point
CC(=O)Oc1cc(OC(C)=O)c2c(C)cc(=O)oc2c1	10	rising, partial curve
CCCCCn1c(=N)n(CC(O)COc2ccccc2OC)c2ccccc21 (stereo not drawn)	5.012	falling, partial curve
O=c1c(-c2ccc(O)cc2)coc2cc(O)cc(O)c12	31.62	falling, partial curve, poor fit
COCCn1nnnc1C(c1ccc2ncccc2c1)N1CCc2ccccc21 (stereo not drawn)	0.03162	rising, full curve, poor fit
Cc1cccc(-c2cc3nc4c(c(N5CCCC(O)C5)n3n2)CCC4)c1 (stereo not drawn)	0.05012	rising, full curve, poor fit
CC(=O)N1CCC[C@@]2(CCN(Cc3ccc(C#N)cc3)C2)C1	1.259	rising, partial curve

The first 4 entries again:

compound	AC50 (µM)	remark
Nc1nonc1-c1nc2ccccc2n1Cc1ccc(F)cc1	6.31	falling, full curve
COc1c(C)cc(Br)cc1C(=O)Nc1cccc(-c2nc3ncccc3o2)c1	7.943	falling, partial curve
Cc1nn2c(-c3ccccc3)c(-c3ccccc3)nc2[nH]c1=O	1.585	falling, partial curve
O=c1[nH]c(=O)n(Cc2ccc(F)cc2)c(O)c1C=NCCN1CCCCC1	0.1995	falling, full curve

Source: PubChem BioAssay AID912 (NCATS, 2007).